16 molecules from article PMC12017883 can be followed below.

By UniProt entry, the sequences of proteins in these tests, tags left out. Where a name states a change or a piece, a line headed by the entry shows the natural chain unless it says otherwise.
UniProt P00441: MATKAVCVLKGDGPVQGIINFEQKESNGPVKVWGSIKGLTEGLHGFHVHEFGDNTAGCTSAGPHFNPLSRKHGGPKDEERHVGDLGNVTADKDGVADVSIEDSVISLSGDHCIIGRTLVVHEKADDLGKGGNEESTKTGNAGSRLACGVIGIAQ
UniProt Q9ERG0: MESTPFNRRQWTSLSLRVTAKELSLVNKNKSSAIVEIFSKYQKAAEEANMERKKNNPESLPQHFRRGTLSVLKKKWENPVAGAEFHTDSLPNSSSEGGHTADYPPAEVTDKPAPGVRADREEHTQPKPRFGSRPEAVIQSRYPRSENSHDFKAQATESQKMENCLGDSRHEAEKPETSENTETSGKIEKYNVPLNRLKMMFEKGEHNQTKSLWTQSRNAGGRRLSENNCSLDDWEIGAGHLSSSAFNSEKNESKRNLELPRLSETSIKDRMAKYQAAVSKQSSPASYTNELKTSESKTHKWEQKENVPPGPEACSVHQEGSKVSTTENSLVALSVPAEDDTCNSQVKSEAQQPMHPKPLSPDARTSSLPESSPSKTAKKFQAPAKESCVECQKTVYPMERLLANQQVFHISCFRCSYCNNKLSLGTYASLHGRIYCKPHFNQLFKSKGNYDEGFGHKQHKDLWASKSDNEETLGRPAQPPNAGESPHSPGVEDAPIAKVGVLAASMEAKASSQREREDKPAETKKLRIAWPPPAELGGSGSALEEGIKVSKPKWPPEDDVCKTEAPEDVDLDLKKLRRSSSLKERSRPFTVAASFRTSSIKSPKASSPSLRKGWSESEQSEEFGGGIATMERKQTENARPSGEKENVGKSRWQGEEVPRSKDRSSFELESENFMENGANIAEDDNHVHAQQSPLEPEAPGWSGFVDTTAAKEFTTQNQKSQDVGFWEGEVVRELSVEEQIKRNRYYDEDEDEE
UniProt E9Q616: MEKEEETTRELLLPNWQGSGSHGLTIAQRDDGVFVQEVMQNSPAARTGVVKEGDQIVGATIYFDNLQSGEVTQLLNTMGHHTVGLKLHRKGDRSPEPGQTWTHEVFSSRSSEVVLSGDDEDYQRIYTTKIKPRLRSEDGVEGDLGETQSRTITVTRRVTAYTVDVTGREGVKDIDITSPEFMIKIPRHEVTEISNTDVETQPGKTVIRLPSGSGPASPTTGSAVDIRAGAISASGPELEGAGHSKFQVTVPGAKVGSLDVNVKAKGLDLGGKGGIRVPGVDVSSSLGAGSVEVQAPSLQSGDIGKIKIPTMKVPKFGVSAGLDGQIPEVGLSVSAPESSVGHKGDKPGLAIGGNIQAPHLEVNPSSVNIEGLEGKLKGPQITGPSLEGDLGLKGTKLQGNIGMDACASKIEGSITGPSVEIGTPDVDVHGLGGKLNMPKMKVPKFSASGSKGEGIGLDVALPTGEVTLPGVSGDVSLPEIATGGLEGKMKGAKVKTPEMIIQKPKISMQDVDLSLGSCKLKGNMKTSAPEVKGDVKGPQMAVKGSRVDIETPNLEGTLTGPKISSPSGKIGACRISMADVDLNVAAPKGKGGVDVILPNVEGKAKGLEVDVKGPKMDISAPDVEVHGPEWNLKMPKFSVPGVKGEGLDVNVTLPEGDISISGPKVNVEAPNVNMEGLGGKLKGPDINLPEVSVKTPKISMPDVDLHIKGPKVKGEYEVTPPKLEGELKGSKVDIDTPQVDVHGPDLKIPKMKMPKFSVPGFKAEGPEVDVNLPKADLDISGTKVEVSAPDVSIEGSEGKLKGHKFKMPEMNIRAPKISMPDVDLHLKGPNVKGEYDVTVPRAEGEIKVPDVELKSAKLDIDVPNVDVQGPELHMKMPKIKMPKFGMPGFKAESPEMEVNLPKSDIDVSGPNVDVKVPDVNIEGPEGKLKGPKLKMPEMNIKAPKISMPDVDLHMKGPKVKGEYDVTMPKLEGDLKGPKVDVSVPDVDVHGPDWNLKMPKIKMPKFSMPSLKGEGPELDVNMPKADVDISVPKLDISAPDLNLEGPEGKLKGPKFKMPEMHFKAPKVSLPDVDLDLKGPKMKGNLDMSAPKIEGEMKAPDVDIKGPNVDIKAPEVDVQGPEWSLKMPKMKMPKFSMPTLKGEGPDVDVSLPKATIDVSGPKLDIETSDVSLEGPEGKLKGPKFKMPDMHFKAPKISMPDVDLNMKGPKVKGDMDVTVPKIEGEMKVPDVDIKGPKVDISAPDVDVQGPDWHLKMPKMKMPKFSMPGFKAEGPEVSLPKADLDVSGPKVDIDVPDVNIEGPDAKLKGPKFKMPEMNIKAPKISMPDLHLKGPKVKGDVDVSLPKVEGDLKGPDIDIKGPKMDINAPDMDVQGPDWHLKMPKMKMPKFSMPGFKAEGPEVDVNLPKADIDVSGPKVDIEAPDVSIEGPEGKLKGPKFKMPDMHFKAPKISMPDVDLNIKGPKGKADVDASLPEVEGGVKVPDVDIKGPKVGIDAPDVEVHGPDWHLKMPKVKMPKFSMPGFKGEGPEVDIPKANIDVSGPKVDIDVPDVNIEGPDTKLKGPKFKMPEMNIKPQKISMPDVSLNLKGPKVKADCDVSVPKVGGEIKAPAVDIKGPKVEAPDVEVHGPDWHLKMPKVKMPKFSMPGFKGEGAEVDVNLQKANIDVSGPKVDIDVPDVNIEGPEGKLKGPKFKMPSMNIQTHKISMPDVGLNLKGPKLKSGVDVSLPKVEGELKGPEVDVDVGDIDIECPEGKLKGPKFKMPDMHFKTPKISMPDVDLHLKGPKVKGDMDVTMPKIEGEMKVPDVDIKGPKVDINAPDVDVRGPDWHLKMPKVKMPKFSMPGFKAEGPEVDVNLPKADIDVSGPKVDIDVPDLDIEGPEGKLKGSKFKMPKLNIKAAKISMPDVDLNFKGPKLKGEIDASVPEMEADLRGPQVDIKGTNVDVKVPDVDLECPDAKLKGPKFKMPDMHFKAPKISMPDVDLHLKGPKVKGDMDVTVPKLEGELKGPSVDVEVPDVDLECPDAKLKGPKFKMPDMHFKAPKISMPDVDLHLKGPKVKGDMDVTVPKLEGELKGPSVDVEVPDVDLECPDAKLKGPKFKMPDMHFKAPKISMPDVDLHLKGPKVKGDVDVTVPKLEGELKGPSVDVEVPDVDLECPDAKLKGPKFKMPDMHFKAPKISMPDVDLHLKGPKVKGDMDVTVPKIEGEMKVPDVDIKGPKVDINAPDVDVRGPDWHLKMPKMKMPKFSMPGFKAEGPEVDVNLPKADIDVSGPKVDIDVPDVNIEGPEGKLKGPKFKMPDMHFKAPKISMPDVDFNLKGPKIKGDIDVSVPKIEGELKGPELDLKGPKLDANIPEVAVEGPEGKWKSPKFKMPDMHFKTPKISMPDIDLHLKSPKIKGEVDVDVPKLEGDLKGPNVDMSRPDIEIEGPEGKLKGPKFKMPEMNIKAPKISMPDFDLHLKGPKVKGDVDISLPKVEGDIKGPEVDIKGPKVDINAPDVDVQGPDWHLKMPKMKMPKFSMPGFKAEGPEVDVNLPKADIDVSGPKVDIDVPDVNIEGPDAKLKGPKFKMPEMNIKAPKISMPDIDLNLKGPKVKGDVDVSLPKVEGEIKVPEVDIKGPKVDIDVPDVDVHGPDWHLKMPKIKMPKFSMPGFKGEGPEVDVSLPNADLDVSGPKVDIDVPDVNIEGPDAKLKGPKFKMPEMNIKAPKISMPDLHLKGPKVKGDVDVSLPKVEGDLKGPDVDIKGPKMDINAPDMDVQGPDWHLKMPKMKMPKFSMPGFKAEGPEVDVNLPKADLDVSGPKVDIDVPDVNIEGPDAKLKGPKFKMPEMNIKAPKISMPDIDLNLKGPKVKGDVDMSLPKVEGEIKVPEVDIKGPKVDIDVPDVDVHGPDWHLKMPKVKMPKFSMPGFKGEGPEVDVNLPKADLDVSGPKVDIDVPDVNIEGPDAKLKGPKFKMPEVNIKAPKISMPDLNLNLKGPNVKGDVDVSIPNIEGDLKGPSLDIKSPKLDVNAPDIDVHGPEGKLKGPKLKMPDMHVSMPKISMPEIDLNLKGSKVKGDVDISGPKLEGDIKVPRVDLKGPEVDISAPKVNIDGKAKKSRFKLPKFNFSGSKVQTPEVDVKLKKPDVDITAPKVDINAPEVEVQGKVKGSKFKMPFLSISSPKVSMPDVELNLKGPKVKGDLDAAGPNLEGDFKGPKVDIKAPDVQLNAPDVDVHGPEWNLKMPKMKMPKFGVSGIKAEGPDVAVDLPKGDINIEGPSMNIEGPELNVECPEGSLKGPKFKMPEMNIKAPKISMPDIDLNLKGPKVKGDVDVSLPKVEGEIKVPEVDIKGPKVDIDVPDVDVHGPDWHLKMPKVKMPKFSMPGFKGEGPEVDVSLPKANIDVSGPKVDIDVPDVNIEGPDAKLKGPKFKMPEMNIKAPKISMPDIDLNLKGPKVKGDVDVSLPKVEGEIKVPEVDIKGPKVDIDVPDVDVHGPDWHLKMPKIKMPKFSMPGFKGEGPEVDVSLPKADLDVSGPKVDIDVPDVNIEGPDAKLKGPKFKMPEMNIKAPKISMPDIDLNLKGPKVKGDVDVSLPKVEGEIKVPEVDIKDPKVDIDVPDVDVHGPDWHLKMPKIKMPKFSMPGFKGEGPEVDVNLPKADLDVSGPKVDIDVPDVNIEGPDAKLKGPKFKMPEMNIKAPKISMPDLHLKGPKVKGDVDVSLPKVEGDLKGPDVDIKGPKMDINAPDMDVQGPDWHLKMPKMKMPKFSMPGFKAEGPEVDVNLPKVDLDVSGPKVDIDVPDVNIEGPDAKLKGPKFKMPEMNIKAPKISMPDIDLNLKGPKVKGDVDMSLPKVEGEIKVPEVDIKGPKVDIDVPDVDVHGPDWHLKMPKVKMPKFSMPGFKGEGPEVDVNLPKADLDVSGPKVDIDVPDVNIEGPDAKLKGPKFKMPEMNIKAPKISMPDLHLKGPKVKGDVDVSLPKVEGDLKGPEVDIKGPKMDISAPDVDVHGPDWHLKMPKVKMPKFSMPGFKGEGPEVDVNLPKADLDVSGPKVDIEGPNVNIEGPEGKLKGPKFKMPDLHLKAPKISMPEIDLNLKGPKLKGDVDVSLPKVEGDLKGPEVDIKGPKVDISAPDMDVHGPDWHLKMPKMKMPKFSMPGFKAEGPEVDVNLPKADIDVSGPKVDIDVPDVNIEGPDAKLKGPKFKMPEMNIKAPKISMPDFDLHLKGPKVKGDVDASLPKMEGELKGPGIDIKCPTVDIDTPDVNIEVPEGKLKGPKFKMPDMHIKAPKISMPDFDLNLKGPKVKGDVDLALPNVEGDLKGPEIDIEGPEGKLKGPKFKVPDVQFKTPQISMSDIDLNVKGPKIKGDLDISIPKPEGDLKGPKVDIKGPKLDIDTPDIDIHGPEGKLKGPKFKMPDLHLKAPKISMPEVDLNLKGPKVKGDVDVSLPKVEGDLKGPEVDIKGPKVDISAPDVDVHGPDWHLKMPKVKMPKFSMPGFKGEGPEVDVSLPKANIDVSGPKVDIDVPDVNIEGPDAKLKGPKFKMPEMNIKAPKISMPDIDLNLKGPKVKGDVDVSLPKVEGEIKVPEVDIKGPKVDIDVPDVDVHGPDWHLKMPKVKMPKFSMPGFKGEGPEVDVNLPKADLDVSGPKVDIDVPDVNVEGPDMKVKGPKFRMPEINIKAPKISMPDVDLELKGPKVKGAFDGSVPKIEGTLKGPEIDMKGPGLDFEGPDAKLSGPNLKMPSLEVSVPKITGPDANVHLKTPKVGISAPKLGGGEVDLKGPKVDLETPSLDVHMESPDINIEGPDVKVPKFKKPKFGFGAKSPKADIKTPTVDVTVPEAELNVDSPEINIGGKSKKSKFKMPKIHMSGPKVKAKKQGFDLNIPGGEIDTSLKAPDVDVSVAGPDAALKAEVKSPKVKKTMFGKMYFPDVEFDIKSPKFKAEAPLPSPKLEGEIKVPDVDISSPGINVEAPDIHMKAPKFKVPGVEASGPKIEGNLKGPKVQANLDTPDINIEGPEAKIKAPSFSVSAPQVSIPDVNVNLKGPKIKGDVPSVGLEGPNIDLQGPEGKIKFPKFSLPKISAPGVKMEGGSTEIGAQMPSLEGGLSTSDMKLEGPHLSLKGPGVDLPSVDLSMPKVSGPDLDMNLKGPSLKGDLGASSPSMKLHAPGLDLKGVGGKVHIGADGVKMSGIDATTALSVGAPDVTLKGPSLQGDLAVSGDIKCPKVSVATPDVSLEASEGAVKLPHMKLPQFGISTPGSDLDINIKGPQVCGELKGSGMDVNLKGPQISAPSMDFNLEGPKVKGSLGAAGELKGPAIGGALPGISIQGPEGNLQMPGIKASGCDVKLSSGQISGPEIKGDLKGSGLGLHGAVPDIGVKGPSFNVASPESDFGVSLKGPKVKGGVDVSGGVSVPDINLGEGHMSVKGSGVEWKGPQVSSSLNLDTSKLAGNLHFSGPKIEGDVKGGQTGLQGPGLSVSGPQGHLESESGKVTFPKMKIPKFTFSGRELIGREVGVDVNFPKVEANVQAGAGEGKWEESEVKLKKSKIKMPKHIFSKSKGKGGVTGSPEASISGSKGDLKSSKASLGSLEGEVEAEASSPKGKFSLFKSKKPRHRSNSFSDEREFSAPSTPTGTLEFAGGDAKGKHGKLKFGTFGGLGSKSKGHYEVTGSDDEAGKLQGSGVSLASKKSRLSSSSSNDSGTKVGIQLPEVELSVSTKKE

These are yes or no findings as the source states them, for the method shown. Binding seen in cells or lysates may run through a third protein. Here binding means that the protein was enriched with, or labelled near, the bait; the list need not be complete.

The target of assay [1] is human mtSOD1-L126delTT with a FLAG sequence at the C terminus (human) (UniProt P00441). In words: affinity purification with mass spectrometry; anti-FLAG M2 IP (5 ug antibody, protein A/G magnetic beads) from the cytosolic fraction of DF7 cells (500 ug total protein); DIA proteomics; no control IP told for this fraction.
The target is the same in assay [2]. As to the kind of experiment: affinity purification with mass spectrometry; anti-FLAG M2 IP (5 ug antibody, protein A/G magnetic beads) from the nuclear fraction of DF7 cells (500 ug total protein); control IP with monoclonal mouse IgG (MOPC 21); DIA proteomics; hits: log2 FC >= 2 over control or missing in the control IP.

On to Myosin-11 (from UniProt O08638 1-1972), for which the binding entry in assay [1] is reported as “binds”.

Regarding “LIM domain and actin-binding protein 1 (from UniProt Q9ERG0 1-753)”, in assay [1], the binding result is reported as “binds”.

Regarding “AHNAK nucleoprotein (desmoyokin) (from UniProt E9Q616 1-5656)”, the binding entry in assay [1] is “binds”.

Take “E3 ubiquitin-protein ligase TRIP12 (from UniProt G5E870 1-2025)”: in assay [1], the binding entry is “binds”.

As for Albumin (from UniProt P07724 25-608), in assay [1], the binding entry is listed as “binds”.

As to “Fibronectin (from UniProt P11276 33-2477)”, in assay [1], the binding result is given as “binds”.

B1: Serbp1 (protein, UniProt Q9CY58 1-407)
chain: MPGHLQEGFGCVVTNRFDQLFDDESDPFEVLKAAENKKKEAGGGGVGGPGAKSAAQAAAQTNSNAAGKQLRKESQKDRKNPLPPSVGVADKKEETQPPVALKKEGIRRVGRRPDQQLQGDGKLIDRRAERRPPRERRFEKPLEEKGEGGEFSVDRPIIERPIRGRGGLGRGRGGRGRGMGRGDGFDSRGKREFDRHSGSDRSSFSHYSGLKHEDKRGGSGSHNWGTVKDELTESPKYIQKQISYNCSDLDQSNVTEETPEGEEHPVADTENKENEVEEVKEEGPKEMTLDEWKAIQNKDRAKVEFNIRKPNEGADGQWKKGFVLHKSKSEEAHAEDSVMDHHFRKPANDITSQLEINFGDLGRPGRGGRGGRGGRGRGGRPNRGSRTDKSSASAPDVDDPEAFPALA
Regarding B1, the binding entry in assay [2] is “binds”.

B2: Phosphate carrier protein, mitochondrial (protein, UniProt Q8VEM8 46-357)
chain: AVEEYSCEFGSMKYYALCGFGGVLSCGLTHTAVVPLDLVKCRMQVDPQKYKGIFNGFSITLKEDGVRGLAKGWAPTLIGYSMQGLCKFGFYEVFKALYSNILGEENTYLWRTSLYLASSASAEFFADIALAPMEAAKVRIQTQPGYANTLREAVPKMYKEEGLNAFYKGVAPLWMRQIPYTMMKFACFERTVEALYKFVVPKPRSECTKAEQLVVTFVAGYIAGVFCAIVSHPADSVVSVLNKEKGSTASQVLQRLGFRGVWKGLFARIIMIGTLTALQWFIYDSVKVYFRLPRPPPPEMPESLKKKLGLTE
Regarding B2, the binding entry in assay [1] was “binds”.

B3: Srrt (protein, UniProt Q99MR6 1-875)
chain: MGDSDDEYDRRRRDKFRRERSDYDRSRERDERRRGDDWNDREWDRGRERRSRGEYRDYDRNRRERFSPPRHELSPPQKRMRRDWDEHSSDPYHSGYDMPYAGGGGGPTYGPPQPWGHPDVHIMQHHVLPIQARLGSIAEIDLGVPPPIMKSFKEFLLSLDDSVDETEAVKRYNDYKLDFRRQQMQDFFLAHKDEEWFRSKYHPDEVGKRRQEARGALQNRLKVFLSLMESGWFDNLLLDIDKADAIVKMLDAAVIKMEGGTENDLRILEQEEEEEQAGKTGEASKKEEARAGPALGEGERKANDKDEKKEDGKQAENDSSNDDKTKKSEGDGDKEEKKEEAEKEAKKSKKRNRKQSGDDSFDEGSVSESESESEGGQAEEEKEEAEEALKEKEKPKEEEKEKPKDAAGLECKPRPLHKTCSLFMRNIAPNISRAEIISLCKRYPGFMRVALSEPQPERRFFRRGWVTFDRSVNIKEICWNLQNIRLRECELSPGVNRDLTRRVRNINGITQHKQIVRNDIKLAAKLIHTLDDRTQLWASEPGTPPVPTSLPSQNPILKNITDYLIEEVSAEEEELLGSSGGPPPEEPPKEGNPAEINVERDEKLIKVLDKLLLYLRIVHSLDYYNTCEYPNEDEMPNRCGIIHVRGPMPPNRISHGEVLEWQKTFEEKLTPLLSVRESLSEEEAQKMGRKDPEQEVEKFVTSNTQELGKDKWLCPLSGKKFKGPEFVRKHIFNKHAEKIEEVKKEVAFFNNFLTDAKRPALPEIKPAQPPGPAQILPPGLTPGLPYPHQTPQGLMPYGQPRPPILGYGAGAVRPAVPTGGPPYPHAPYGAGRGNYDAFRGQGGYPGKPRNRMVRGDPRAIVEYRDLDAPDDVDFF
For B3, in assay [2], the binding result is listed as “binds”.

B4: ADP/ATP translocase 1 (protein, UniProt P48962 1-298)
chain: MGDQALSFLKDFLAGGIAAAVSKTAVAPIERVKLLLQVQHASKQISAEKQYKGIIDCVVRIPKEQGFLSFWRGNLANVIRYFPTQALNFAFKDKYKQIFLGGVDRHKQFWRYFAGNLASGGAAGATSLCFVYPLDFARTRLAADVGKGSSQREFNGLGDCLTKIFKSDGLKGLYQGFSVSVQGIIIYRAAYFGVYDTAKGMLPDPKNVHIIVSWMIAQSVTAVAGLVSYPFDTVRRRMMMQSGRKGADIMYTGTLDCWRKIAKDEGANAFFKGAWSNVLRGMGGAFVLVLYDEIKKYV
On to B4, for which, in assay [1], the binding entry is recorded as “binds”.

B5: Zc3hav1 (protein, UniProt Q3UPF5 1-996)
chain: MTDPEVFCFITKILCAHGGRMTLEELLGEISLPEAQLYELLKAAGPDRFVLLETGDQAGITRSVVATTRARVCRRKYCQRPCDSLHLCKLNLLGRCHYAQSQRNLCKYSHDVLSEQNFQVLKNHELSGLNQEELAVLLVQSDPFFMPEICKSYKGEGRKQICGQPQPCERLHICEHFTRGNCSYLNCLRSHNLMDRKVLAIMREHGLSSDVVQNIQDICNNKHTRRNPPSMRAPHPHRRGGAHRDRSKSRDRFHHNSLEVLSTVSPLGSGPPSPDVTGCKDPLEDVSADVTQKFKYLGTQDRAQLSSVSSKAAGVRGPSQMRASQEFLEDGDPDGLFSRNRSDSSTSRTSAAGFPLVAAQRNEAGAMKMGMPSGHHVEVKGKNEDIDRVPFLNSYIDGVTMEEATVSGILGKRATDNGLEEMILSSNHQKSVAKTQDPQTAGRITDSGQDTAFLHSKYEENPAWPGTSTHNGPNGFSQIMDETPNVSKSSPTGFGIKSAVTGGKEAVYSGVQSLRSHVLAMPGETTTPVQGSNRLPPSPLSSSTSHRVAASGSPGKSSTHASVSPASEPSRMMMMMSDPAEYSLCYIVNPVSPRMDDHGLKEICLDHLYRGCQQVNCNKNHFHLPYRWQLFILPTWMDFQDMEYIERAYCDPQIEIIVIEKHRINFKKMTCDSYPIRRLSTPSFVEKTLNSVFTTKWLWYWRNELNEYTQYGHESPSHTSSEINSAYLESFFHSCPRGVLQFHAGSQNYELSFQGMIQTNIASKTQRHVVRRPVFVSSKDVEQKRRGPDHQPVMPQADALTLFSSPQRNASTVSSNEYEFIELNNQDEEYAKISEQFKASMKQFKIVTIKRIWNQKLWDTFERKKQKMKNKTEMFLFHAVGRIHMDYICKNNFEWILHGNREIRYGKGNYFTKEAMYSHKSCSYDSRGTVMFVARVLVGSVIEGNMTLSSPPALYDSCVDTRLNPSVFVIFRKEQIYPEYVIEYMELEKEKGCIIS
For B5, the binding result in assay [2] was “binds”.

B6: Sart1 (protein, UniProt Q9Z315 1-806)
chain: MGSSKKHRGEKEAAGTTAAAGTGGTTEQPPRHREHKKHKHRSSGGGSSGGERRKRSRERGSERGSGRRGAEAEARSGAHGRERSQAEPSERRVKREKRDDGYEAAASSKASSGDASSLSIEETNKLRAKLGLKPLEVNAVKKEAGTKEEPVAADVINPMALRQREELREKLAAAKEKRLLNQKLGKIKTLGEDDPWLDDTAAWIERSRQLQKEKDLAEKRAKLLEEMDQEFGVSTLVEEEFEQRRQDLYSARDLQGLTVEHAIDSFREGETVVLTLKDKGVLQDGEDVLVNVNMVDKERADKNVELRKKKPDYLPYAEDESVDDLAQQKPRSILAKYDEELEGERPHSFRLEQGGMADGLRERELEEIRTKLRLQAQSLSSVGPRLASEYLSPEEMVTFKKTKRRVKKIRKKEKEVIMRADDLLPLGDQTQDGDFGSRLRGRGRRRVPEVEEEALEDEEKDPVAQPPPSDDTRVENMDISDEEDGGALPPGSPEGLEEDEAELELQKQLEKGRRLRQLQQLQQLRDSGEKVLEIVKKLESRQRGWEEEEDPERKGTIVFNATSEFCRTLGEIPTYGLAGNREEQEELMDFERDEERSANGGSESDGEENIGWSTVNLDEEKQHQDFSASSTTILDEEPIVNRGLAAALLLCQNKGLLETTVQKVARVKAPNKSLPSAVYCIEDKMAIDDKYSRREEYRGFTQDFKEKDGYKPDVKIEYVDETGRKLTPKEAFRQLSHRFHGKGSGKMKTERRMKKLDEEALLKKMSSSDTPLGTVALLQEKQKAQKTPYIVLSGSGKSMNANTITK
In the case of B6, in assay [2], the binding entry is on record as “binds”.

B7: Ssb (protein, UniProt P32067 1-415)
chain: MAENGDNEKMTALEAKICHQIEYYFGDFNLPRDKFLKEQIKLDEGWVPLETMIKFNRLNRLTTDFNVIVQALSKSKAKLMEVSADKTKIRRSPSRPLPEVTDEYKNDVKNRSVYIKGFPTDATLDDIKEWLDDKGQILNIQMRRTLHKTFKGSIFAVFDSIQSAKKFVEIPGQKYKDTNLLILFKEDYFAKKNEERKQSKVEAKLKAKQEHEGRHKPGSTETRALEGKMGCLLKFSGDLDDQTCREDLHFLFSNHGEIKWVDFARGAKEGIILFKEKAKEALEKARNANNGNLLLRNKKVTWKVLEGHAEKEALKKITDDQQESLNKWKSKGGHAGGRFKGSHVFTAARRFKGKGKGNRPGYAGAPKGRGQFHGRRTRFDDDDRRRGPMKRGRDGRDREEPASKHKKRENGARDK
As for B7, the binding entry in assay [2] is given as “binds”.

B8: Sfpq (protein, UniProt Q8VIJ6 1-699)
chain: MSRDRFRSRGGGGGGFHRRGGGGGRGGLHDFRSPPPGMGLNQNRGPMGPGPGGPKPPLPPPPPHQQQQQPPPQQPPPQQPPPHQQPPPHQPPHQQPPPPPQESKPVVPQGPGSAPGVSSAPPPAVSAPPANPPTTGAPPGPGPTPTPPPAVPSTAPGPPPPSTPSSGVSTTPPQTGGPPPPPAGGAGPGPKPGPGPGGPKGGKMPGGPKPGGGPGMGAPGGHPKPPHRGGGEPRGGRQHHAPYHQQHHQGPPPGGPGPRTEEKISDSEGFKANLSLLRRPGEKTYTQRCRLFVGNLPADITEDEFKRLFAKYGEPGEVFINKGKGFGFIKLESRALAEIAKAELDDTPMRGRQLRVRFATHAAALSVRNLSPYVSNELLEEAFSQFGPIERAVVIVDDRGRSTGKGIVEFASKPAARKAFERCSEGVFLLTTTPRPVIVEPLEQLDDEDGLPEKLAQKNPMYQKERETPPRFAQHGTFEYEYSQRWKSLDEMEKQQREQVEKNMKDAKDKLESEMEDAYHEHQANLLRQDLMRRQEELRRMEELHSQEMQKRKEMQLRQEEERRRREEEMMIRQREMEEQMRRQREESYSRMGYMDPRERDMRMGGGGTMNMGDPYGSGGQKFPPLGGGGGIGYEANPGVPPATMSGSMMGSDMRTERFGQGGAGPVGGQGPRGMGPGTPAGYGRGREEYEGPNKKPRF
As for B8, in assay [2], the binding entry was “binds”.

B9: Myosin light polypeptide 6 (protein, UniProt Q60605 1-151)
chain: MCDFTEDQTAEFKEAFQLFDRTGDGKILYSQCGDVMRALGQNPTNAEVLKVLGNPKSDEMNVKVLDFEHFLPMLQTVAKNKDQGTYEDYVEGLRVFDKEGNGTVMGAEIRHVLVTLGEKMTEEEVEMLVAGHEDSNGCINYEAFVRHILSG
Take B9: in assay [1], the binding entry is given as “binds”.

B10: Vesicle-associated membrane protein 8 (protein, UniProt O70404 1-101)
chain: MEEASGSAGNDRVRNLQSEVEGVKNIMTQNVERILSRGENLDHLRNKTEDLEATSEHFKTTSQKVARKFWWKNVKMIVIICVIVLIIVILIILFATGTIPT
Regarding B10, the binding result in assay [2] was “binds”.
